Assay [1] concerns the target T1, ZEB1, endogenous in murine NSCLC cell lines (mouse (endogenous in 344SQ and 531LN2)) (UniProt Q64318).
T1 sequence: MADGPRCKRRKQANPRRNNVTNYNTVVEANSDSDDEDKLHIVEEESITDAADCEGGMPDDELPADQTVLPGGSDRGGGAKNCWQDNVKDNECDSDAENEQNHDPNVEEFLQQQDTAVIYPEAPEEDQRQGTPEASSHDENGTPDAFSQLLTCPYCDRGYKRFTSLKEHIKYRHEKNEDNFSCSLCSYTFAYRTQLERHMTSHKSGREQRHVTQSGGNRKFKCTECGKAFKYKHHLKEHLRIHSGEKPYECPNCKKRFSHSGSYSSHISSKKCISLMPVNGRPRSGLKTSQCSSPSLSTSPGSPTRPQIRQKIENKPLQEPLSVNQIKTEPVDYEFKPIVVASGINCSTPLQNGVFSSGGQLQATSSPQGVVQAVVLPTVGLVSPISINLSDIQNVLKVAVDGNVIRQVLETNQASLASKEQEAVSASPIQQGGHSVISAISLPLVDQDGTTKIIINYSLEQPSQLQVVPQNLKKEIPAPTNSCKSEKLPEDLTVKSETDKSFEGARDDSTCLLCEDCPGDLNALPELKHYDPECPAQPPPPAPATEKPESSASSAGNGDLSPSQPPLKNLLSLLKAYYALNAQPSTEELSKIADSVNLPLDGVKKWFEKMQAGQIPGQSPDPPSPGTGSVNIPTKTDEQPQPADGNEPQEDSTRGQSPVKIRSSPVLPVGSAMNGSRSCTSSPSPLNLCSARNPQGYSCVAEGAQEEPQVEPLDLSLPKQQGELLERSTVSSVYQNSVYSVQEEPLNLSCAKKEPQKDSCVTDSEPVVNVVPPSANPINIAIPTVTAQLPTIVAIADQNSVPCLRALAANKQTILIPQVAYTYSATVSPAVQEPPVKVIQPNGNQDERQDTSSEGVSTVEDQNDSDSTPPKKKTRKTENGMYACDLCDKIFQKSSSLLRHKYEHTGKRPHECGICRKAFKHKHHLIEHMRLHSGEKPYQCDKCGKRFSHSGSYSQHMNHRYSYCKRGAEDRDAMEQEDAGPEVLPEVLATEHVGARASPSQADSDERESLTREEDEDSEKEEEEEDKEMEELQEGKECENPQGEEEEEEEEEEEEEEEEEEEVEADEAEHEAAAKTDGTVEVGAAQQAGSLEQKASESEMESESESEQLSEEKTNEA
Nature of the assay: proximity ligation; endogenous proteins in fixed, permeabilised H157, H1299, 344SQ and 531LN2 cells; primary antibodies to ZEB1 and a NuRD member; Duolink In Situ Red Starter Mouse/Rabbit kit; confocal microscopy.

Chains of the proteins cited; added tags and fusions are not shown.
UniProt Q13330: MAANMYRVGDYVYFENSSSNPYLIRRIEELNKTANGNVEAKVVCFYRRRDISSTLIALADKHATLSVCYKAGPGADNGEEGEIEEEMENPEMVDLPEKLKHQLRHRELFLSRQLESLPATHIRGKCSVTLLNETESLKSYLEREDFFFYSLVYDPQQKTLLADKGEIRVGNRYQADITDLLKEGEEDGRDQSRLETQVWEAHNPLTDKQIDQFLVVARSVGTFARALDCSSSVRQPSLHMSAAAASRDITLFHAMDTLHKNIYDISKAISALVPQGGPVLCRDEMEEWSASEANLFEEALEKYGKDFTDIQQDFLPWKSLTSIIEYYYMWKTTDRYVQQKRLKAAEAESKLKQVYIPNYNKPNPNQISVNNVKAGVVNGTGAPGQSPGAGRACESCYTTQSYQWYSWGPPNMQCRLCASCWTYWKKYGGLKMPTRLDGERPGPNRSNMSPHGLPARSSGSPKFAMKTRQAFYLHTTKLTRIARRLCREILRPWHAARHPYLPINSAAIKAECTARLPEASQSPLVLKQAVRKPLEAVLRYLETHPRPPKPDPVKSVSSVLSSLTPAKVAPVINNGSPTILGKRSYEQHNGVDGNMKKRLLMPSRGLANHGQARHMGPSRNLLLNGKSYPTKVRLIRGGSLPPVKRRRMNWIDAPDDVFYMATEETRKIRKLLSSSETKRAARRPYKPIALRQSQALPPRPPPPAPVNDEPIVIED
UniProt Q9R190: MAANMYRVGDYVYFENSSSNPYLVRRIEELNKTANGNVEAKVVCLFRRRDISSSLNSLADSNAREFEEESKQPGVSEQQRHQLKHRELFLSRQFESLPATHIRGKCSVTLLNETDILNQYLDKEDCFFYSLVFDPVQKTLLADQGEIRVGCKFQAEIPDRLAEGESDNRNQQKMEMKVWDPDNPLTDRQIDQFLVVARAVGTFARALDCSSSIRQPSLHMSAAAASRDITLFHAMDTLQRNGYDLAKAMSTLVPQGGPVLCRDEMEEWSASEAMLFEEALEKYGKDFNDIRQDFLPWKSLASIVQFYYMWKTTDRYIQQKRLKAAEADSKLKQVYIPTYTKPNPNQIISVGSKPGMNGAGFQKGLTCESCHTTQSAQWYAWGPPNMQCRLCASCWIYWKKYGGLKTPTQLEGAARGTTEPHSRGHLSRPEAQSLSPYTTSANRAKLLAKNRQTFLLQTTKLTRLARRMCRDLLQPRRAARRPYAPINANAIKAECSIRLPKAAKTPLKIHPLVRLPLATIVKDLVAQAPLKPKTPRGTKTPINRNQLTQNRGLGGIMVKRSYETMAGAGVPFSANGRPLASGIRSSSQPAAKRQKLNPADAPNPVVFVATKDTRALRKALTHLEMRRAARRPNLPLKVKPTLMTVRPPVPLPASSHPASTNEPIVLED
UniProt Q924K8: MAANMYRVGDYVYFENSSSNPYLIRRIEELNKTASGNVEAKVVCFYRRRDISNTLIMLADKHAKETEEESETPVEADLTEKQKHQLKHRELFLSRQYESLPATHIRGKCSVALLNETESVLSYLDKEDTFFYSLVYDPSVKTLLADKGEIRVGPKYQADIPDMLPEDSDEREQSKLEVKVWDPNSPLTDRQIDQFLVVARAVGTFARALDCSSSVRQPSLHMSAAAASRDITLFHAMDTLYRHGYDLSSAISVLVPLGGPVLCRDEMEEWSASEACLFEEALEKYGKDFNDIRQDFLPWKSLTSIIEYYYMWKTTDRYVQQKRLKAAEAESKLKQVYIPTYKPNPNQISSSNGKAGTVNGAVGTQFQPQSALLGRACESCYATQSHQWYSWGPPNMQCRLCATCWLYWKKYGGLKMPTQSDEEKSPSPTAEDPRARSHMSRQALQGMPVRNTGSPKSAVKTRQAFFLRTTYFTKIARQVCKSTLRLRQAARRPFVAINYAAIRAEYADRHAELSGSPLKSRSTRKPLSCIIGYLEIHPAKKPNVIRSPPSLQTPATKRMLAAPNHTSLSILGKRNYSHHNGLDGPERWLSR

Assay [2] addresses MTA1, human, endogenous (human (endogenous in HEK293 Flp-In, H157 and H1299)) (UniProt Q13330). Kind of assay: co-IP; HEK293 Flp-In cells expressing FlagBirA*-ZEB1; 500 ug crude lysate with primary antibody overnight at 4 °C, Protein A/G PLUS-Agarose, washes with PBS and 50 mM Tris pH 7.4, 150 mM NaCl, 0.1% NP-40; Western blot. Background: Immunoblotting shows a protein as a band on a membrane.

For assay [3], the target named is T2, TBC1D2b in the murine NSCLC cell lines 344SQ and 531LN2 (murine) (UniProt Q3U0J8).
T2 sequence: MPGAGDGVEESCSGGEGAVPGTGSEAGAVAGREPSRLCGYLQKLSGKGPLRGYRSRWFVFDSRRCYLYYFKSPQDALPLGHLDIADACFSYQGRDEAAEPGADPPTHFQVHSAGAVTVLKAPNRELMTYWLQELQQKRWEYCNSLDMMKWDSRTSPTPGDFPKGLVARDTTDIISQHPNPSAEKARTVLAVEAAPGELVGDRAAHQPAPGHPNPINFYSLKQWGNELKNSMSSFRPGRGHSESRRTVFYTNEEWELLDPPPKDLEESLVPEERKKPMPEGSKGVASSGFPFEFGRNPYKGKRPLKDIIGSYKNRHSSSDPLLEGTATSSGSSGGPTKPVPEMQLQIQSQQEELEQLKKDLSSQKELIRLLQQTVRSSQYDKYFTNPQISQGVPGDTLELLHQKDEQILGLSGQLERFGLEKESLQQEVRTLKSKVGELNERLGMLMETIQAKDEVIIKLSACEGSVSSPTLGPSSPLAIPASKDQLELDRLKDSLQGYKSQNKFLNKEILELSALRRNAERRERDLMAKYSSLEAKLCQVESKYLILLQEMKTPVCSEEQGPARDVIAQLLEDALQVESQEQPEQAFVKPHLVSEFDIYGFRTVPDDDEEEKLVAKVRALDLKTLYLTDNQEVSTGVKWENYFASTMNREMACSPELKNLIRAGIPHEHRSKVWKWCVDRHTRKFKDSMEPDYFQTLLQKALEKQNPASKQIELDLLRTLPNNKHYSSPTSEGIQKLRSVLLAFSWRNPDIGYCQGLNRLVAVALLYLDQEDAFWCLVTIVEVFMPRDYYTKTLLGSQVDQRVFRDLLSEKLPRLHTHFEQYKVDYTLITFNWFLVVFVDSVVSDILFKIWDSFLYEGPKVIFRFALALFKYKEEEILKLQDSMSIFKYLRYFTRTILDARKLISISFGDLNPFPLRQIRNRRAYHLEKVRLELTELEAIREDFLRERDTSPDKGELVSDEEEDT
Nature of the assay: co-IP; 344SQ and 531LN2 murine cell lysates; 500 ug crude lysate with primary antibody overnight at 4 °C, Protein A/G PLUS-Agarose; Western blot.

Results are given in words; binding and its absence hold for the method and conditions named. Binding seen in cells or lysates may run through a third protein. Some binding calls cover weakened binding; strength is not graded here. For some assays here: Tags and fused reporters may be left off the sequences shown.

For the molecule “MTA2, murine, endogenous (from UniProt Q9R190 1-668)”, the binding result in assay [1] is “binds”. Still for that read-out and setting: to “MTA3, murine, endogenous (from UniProt Q924K8 1-591)” belongs “binds”.

B1: FlagBirA*-ZEB1 (human ZEB1 with an N-terminal FlagBirA* tag) (protein, UniProt P37275 1-1124)
chain: MADGPRCKRRKQANPRRNNVTNYNTVVETNSDSDDEDKLHIVEEESVTDAADCEGVPEDDLPTDQTVLPGRSSEREGNAKNCWEDDRKEGQEILGPEAQADEAGCTVKDDECESDAENEQNHDPNVEEFLQQQDTAVIFPEAPEEDQRQGTPEASGHDENGTPDAFSQLLTCPYCDRGYKRFTSLKEHIKYRHEKNEDNFSCSLCSYTFAYRTQLERHMTSHKSGRDQRHVTQSGCNRKFKCTECGKAFKYKHHLKEHLRIHSGEKPYECPNCKKRFSHSGSYSSHISSKKCISLIPVNGRPRTGLKTSQCSSPSLSASPGSPTRPQIRQKIENKPLQEQLSVNQIKTEPVDYEFKPIVVASGINCSTPLQNGVFTGGGPLQATSSPQGMVQAVVLPTVGLVSPISINLSDIQNVLKVAVDGNVIRQVLENNQANLASKEQETINASPIQQGGHSVISAISLPLVDQDGTTKIIINYSLEQPSQLQVVPQNLKKENPVATNSCKSEKLPEDLTVKSEKDKSFEGGVNDSTCLLCDDCPGDINALPELKHYDLKQPTQPPPLPAAEAEKPESSVSSATGDGNLSPSQPPLKNLLSLLKAYYALNAQPSAEELSKIADSVNLPLDVVKKWFEKMQAGQISVQSSEPSSPEPGKVNIPAKNNDQPQSANANEPQDSTVNLQSPLKMTNSPVLPVGSTTNGSRSSTPSPSPLNLSSSRNTQGYLYTAEGAQEEPQVEPLDLSLPKQQGELLERSTITSVYQNSVYSVQEEPLNLSCAKKEPQKDSCVTDSEPVVNVIPPSANPINIAIPTVTAQLPTIVAIADQNSVPCLRALAANKQTILIPQVAYTYSTTVSPAVQEPPLKVIQPNGNQDERQDTSSEGVSNVEDQNDSDSTPPKKKMRKTENGMYACDLCDKIFQKSSSLLRHKYEHTGKRPHECGICKKAFKHKHHLIEHMRLHSGEKPYQCDKCGKRFSHSGSYSQHMNHRYSYCKREAEERDSTEQEEAGPEILSNEHVGARASPSQGDSDERESLTREEDEDSEKEEEEEDKEMEELQEEKECEKPQGDEEEEEEEEEVEEEEVEEAENEGEEAKTEGLMKDDRAESQASSLGQKVGESSEQVSEEKTNEA
In the case of B1, the binding result in assay [2] was “binds”.

B2: Rab31, murine, endogenous (protein, UniProt Q921E2 1-195)
chain: MMAIRELKVCLLGDTGVGKSSIVCRFVQDHFDHNISPTIGASFMTKTVPCGNELHKFLIWDTAGQERFHSLAPMYYRGSAAAVIVYDITKQDSFHTLKKWVKELKEHGPENIVMAIAGNKCDLSDIREVPLKDAKEYAESIGAIVVETSAKNAINIEELFQGISRQIPPLGPQENGNSGGIKLGNQSLQASRRCC
For B2, in assay [3], the binding result is “no binding”.

B3: Rab22, murine, endogenous (protein, UniProt P35285 1-194)
chain: MALRELKVCLLGDTGVGKSSIVWRFVEDSFDPNINPTIGASFMTKTVQYQNELHKFLIWDTAGQERFRALAPMYYRGSAAAIIVYDITKEETFSTLKNWVRELRQHGPPSIVVAIAGNKCDLTDVREVMERDAKDYADSIHAIFVETSAKNAININELFIEISRRIPSTDANPASGGKGFKLRRQPSEPKRSCC
Regarding B3, the binding entry in assay [3] was “binds”.

For the origin of these results see PMC6851102.
